Drawing on PMC4479446, this text covers binding for 1 molecule.

The chains behind the UniProt entries cited, without tags or fusion partners.
UniProt P35222: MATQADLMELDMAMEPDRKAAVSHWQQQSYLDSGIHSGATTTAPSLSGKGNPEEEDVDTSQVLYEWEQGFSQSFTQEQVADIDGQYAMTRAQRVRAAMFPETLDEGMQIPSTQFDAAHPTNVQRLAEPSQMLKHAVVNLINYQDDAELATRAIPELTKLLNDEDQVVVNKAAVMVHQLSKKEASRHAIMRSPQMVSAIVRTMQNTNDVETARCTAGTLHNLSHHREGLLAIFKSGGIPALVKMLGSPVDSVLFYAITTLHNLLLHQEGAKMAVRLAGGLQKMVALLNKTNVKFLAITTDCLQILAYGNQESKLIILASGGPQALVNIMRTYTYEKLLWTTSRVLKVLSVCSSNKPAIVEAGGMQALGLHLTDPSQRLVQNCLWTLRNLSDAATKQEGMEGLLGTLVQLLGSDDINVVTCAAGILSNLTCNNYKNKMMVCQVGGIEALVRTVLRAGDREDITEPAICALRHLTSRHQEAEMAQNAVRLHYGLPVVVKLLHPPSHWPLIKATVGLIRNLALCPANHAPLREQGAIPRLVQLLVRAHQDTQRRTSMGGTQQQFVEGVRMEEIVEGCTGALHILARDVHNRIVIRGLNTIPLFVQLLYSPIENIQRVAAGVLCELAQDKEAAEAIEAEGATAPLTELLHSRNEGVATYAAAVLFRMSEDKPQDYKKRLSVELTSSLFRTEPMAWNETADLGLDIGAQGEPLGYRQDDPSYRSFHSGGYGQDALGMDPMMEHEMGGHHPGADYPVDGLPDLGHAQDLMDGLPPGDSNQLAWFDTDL

No constants are given. Whether binding was seen depends on the method and setting. In cells and extracts the contact can be indirect. Some entries that bind do so weakly or less than the wild type.

In the assay the target is β-catenin (human (endogenous in Caco-2)) (UniProt P35222). In words: co-IP; Caco-2 cell extracts after 6 h of the indicated treatments (AEE788 2.5 µM and/or celecoxib 10 µM); IP with β-catenin antibody or control IgG, Protein A/G gel, 4°C; co-IP buffer 10 mM HEPES, 10 mM KCl, 1.5 mM MgCl2, 0.5 mM DTT, 0.075% NP40; IB with FOXM1 antibody.

B1: forkhead box M1 (FOXM1) transcription factor (protein, UniProt Q08050 1-763)
chain: MKTSPRRPLILKRRRLPLPVQNAPSETSEEEPKRSPAQQESNQAEASKEVAESNSCKFPAGIKIINHPTMPNTQVVAIPNNANIHSIITALTAKGKESGSSGPNKFILISCGGAPTQPPGLRPQTQTSYDAKRTEVTLETLGPKPAARDVNLPRPPGALCEQKRETCADGEAAGCTINNSLSNIQWLRKMSSDGLGSRSIKQEMEEKENCHLEQRQVKVEEPSRPSASWQNSVSERPPYSYMAMIQFAINSTERKRMTLKDIYTWIEDHFPYFKHIAKPGWKNSIRHNLSLHDMFVRETSANGKVSFWTIHPSANRYLTLDQVFKPLDPGSPQLPEHLESQQKRPNPELRRNMTIKTELPLGARRKMKPLLPRVSSYLVPIQFPVNQSLVLQPSVKVPLPLAASLMSSELARHSKRVRIAPKVLLAEEGIAPLSSAGPGKEEKLLFGEGFSPLLPVQTIKEEEIQPGEEMPHLARPIKVESPPLEEWPSPAPSFKEESSHSWEDSSQSPTPRPKKSYSGLRSPTRCVSEMLVIQHRERRERSRSRRKQHLLPPCVDEPELLFSEGPSTSRWAAELPFPADSSDPASQLSYSQEVGGPFKTPIKETLPISSTPSKSVLPRTPESWRLTPPAKVGGLDFSPVQTSQGASDPLPDPLGLMDLSTTPLQSAPPLESPQRLLSSEPLDLISVPFGNSSPSDIDVPKPGSPEPQVSGLAANRSLTEGLVLDTMNDSLSKILLDISFPGLDEDPLGPDNINWSQFIPELQ
On to B1, for which the binding result is listed as “binds”.
